In PubChem BioAssay AID445 (National Center for Advancing Translational Sciences (NCATS), 2006):
The other results are listed elsewhere or left out. These are further read-outs of the screen, such as a control signal, another cell line or another target. No call is given for them. Most of these compounds were active or inconclusive in the main read-out, so they are no random draw. Potencies come from curve fits of mixed quality, noted in brackets.

Experiment: IkB Signaling
Settings: ABC-DLBCL IkBa-CBG/CBR dual luciferase ratio (green luciferase fused to IkBa over red control in OCI-Ly3 lymphoma cells), 4 h
How it was run: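 Curves were fitted separately to fusion (green), unfused (red) and ratio luminescence, then classed by r2, magnitude and activity. Cells: OCI-Ly3, 4 h compound plus doxycycline at 37C; 10 uM MG-132 defined full response.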

[1] = measured here: control luc red channel unless noted

COc1ccc(C(=O)NCC(c2cccnc2)N2CCc3ccccc32)cc1OC (stereo not drawn)
AC50 [1]: 12.6 µM [falling, partial curve]

Cc1cccc(CNC(=O)c2ccc(NC(=O)N3CCSc4ccccc43)cc2)c1
AC50 [1]: 20 µM [falling, single point]

Cc1cccc(Oc2ccc3c(c2)Oc2ccccc2NC3=O)c1
AC50 [1]: 3.98 µM [rising, single point]

CNC(=O)c1c(NC(=O)c2ccc(S(=O)(=O)N3CCCCC3C)cc2)sc2c1CCC2 (stereo not drawn)
AC50 [1]: 10 µM [falling, partial curve]

COc1ccc(-c2nnc(SCC(=O)N(C)Cc3ccccc3)o2)cc1OC
AC50 [1]: 2.51 µM [falling, full curve]

O=S(=O)(Nc1cccc(-c2ccc(N3CCCC3)nn2)c1)c1ccc(F)c(C(F)(F)F)c1
AC50 [1]: 20 µM [falling, single point]

CC1CCN(Cc2ccc(NC(=O)CC3Oc4ccccc4NC3=O)cc2)CC1 (stereo not drawn)
AC50 [1]: 12.6 µM [falling, partial curve]

COc1ccc(C(=O)Nc2nnc(C(F)(F)F)s2)cc1
AC50 [1]: 0.158 µM [falling, full curve]

CCCCSCCCNC(=O)C1CCC(CNS(=O)(=O)c2c(C)cc(C)cc2C)CC1 (stereo not drawn)
AC50 [1]: 5.01 µM [falling, partial curve]

CC(=O)c1ccc(NC(=O)CCc2c(C)nn(-c3ccc(N4CCCCC4)nn3)c2C)cc1
AC50 [1]: 12.6 µM [falling, partial curve]

O=C(CSc1nc2c([nH]c3ccccc32)c(=O)n1-c1ccccc1)N1CCCCCC1
AC50 [1]: 3.16 µM [rising, full curve, poor fit]

C=CCN1C(=Nc2cccnc2)SCC1(O)c1ccc(C)cc1 (stereo not drawn)
AC50 [1]: 10 µM [falling, partial curve]

O=C(NCCCN1CCN(c2ccccc2F)CC1)c1cc2c(s1)-c1ccccc1OC2
AC50 [1]: 25.1 µM [falling, partial curve]

O=C(O)c1ccc(NC(=O)c2cc3ccccc3o2)cc1
AC50 [1]: 0.1 µM [falling, full curve]

CCc1ccc(-n2nc(C)c3c(C)cc(=O)n(CC(=O)Nc4ccccc4C(=O)OC)c32)cc1
AC50 [1]: 3.98 µM [falling, partial curve]

CCCCOc1ccc(C(=O)N/C(=C\c2ccc(Br)cc2)C(=O)NC2CCCCC2)cc1
AC50 [1]: 0.398 µM [falling, full curve, poor fit]

O=C(Nc1cccc(F)c1)C1CCN(c2nc3ccccc3[nH]2)CC1
AC50 [1]: 2.51 µM [falling, partial curve, poor fit]

Cc1cccc(-n2ccnc2SCC(=O)Nc2ccc3c(c2)OCO3)c1
AC50 [1]: 31.6 µM [falling, single point]

COC(=O)c1ccc(OCC2c3cc(OC)c(OC)cc3CCN2C(=O)c2ccco2)cc1 (stereo not drawn)
AC50 [1]: 10 µM [falling, partial curve]

Cc1nc2c3ccccc3nc(NNC(=O)CCC(=O)N3CCN(c4cccc(C(F)(F)F)c4)CC3)n2n1
AC50 [1]: 25.1 µM [falling, single point]

O=C(C1CCN(S(=O)(=O)c2cccc3nsnc23)CC1)N1CC=C(c2ccccc2)CC1
AC50 [1]: 10 µM [falling, partial curve]

Cc1ccc(NC(=O)CSCc2cnn(-c3ccccc3)c2-n2cccc2)c(Cl)c1
AC50 [1]: 39.8 µM [falling, single point]

CCc1ccccc1NC(=O)Cn1c(=O)n(-c2ccc(C)c(C)c2)c(=O)c2oc3ccccc3c21
AC50 [1]: 0.631 µM [falling, partial curve]

CCCN(CCC)S(=O)(=O)c1cc(Br)cc2c1N(C(=O)CC)CC2
AC50 [1]: 12.6 µM [falling, partial curve]

COc1cc(Br)ccc1C1C(C(=O)Nc2ccc(C)cc2C)=C(C)Nc2nnnn21 (stereo not drawn)
AC50 [1]: 39.8 µM [falling, single point]

COc1ccc(CCNc2nc3ccccc3c3nc(-c4cccc(C)c4)nn23)cc1OC
AC50 [1]: 15.8 µM [falling, single point]

COc1ccc(S(=O)(=O)NCCc2sc(-c3cccc(C)c3)nc2C)cc1
AC50 [1]: 39.8 µM [falling, single point]

Cc1ccc(CCNC(=O)c2cccc(Nc3nc4ccccc4nc3-n3nc(C)cc3C)c2)cc1
AC50 [1]: 31.6 µM [falling, single point]

CCc1ccc(-n2nc(C)c3c(C(=O)N4CCN(c5cccc(Cl)c5)CC4)cc(C)nc32)cc1
AC50 [1]: 39.8 µM [falling, single point]

Cc1nn(CC(=O)N2CCN(c3cccc(Cl)c3)CC2)c(=O)c2c1sc1ccccc12
AC50 [1]: 15.8 µM [falling, single point]

CCOC(=O)c1ccc(NC(=O)CCc2c(C)nc3c(c(C)nn3C(C)(C)C)c2C)cc1
AC50 [1]: 25.1 µM [falling, single point]

CCOc1cc(C(=O)OCc2cc(=O)n3nc(C4CC4)sc3n2)cc(OCC)c1OCC
AC50 [1]: 39.8 µM [falling, single point]

CC(C)CCNC(=O)c1ccc(Cn2c(SCC(N)=O)nc3ccccc3c2=O)cc1
AC50 [1]: 2.51 µM [falling, partial curve]

COc1cc(OC)c(NC(=O)NCc2cccn2Cc2ccccc2)cc1Cl
AC50 [1]: 12.6 µM [falling, partial curve]

COC(=O)c1c(-c2cccs2)csc1NC(=O)c1cc(OC)c(OC)c(OC)c1
AC50 [1]: 0.794 µM [falling, full curve]

COc1ccc(-c2cn3c(n2)sc2cc(C(=O)Nc4ccc(F)cc4Cl)ccc23)cc1
AC50 [1]: 1.58 µM [falling, full curve]

COc1ccc(-n2ccn(CC(=O)Nc3ccc(C)c(C)c3)c(=O)c2=O)cc1OC
AC50 [1]: 2 µM [rising, full curve]

CC1CCCN(S(=O)(=O)c2cc(C(=O)NCc3ccccc3Cl)n(C)c2)C1 (stereo not drawn)
AC50 [1]: 25.1 µM [falling, single point]

Cc1ccc(NC(=O)C(=O)NCC(c2cccnc2)N2CCc3ccccc3C2)cc1 (stereo not drawn)
AC50 [1]: 2 µM [falling, partial curve]

C=Cc1ccc(Cn2c(C(=O)O)c(CNCc3ccccc3)c3ccc(OC)cc32)cc1
AC50 [1]: 15.8 µM [falling, single point]

CC1=CC(=O)c2ccccc2C1=O
AC50 [1]: 10 µM [falling, partial curve]

CCN(C(=O)c1cc2cc(Br)cc(OC)c2oc1=O)c1ccccc1
AC50 [1]: 31.6 µM [falling, single point]

CCCCCOC(=O)c1[nH]c2c(c1C)C(=O)CC(c1ccco1)C2 (stereo not drawn)
AC50 (measured here: IkB-luc green channel): 0.126 µM [rising, full curve]
AC50 (measured here: control luc red channel): 0.0794 µM [rising, full curve]

O=C(NC1CCCCCC1)c1ccc(CS(=O)c2ccc(Br)cc2)o1 (stereo not drawn)
AC50 [1]: 12.6 µM [falling, single point]

COc1cccc(C2c3c(-c4ccccc4O)n[nH]c3C(=O)N2Cc2cccnc2)c1 (stereo not drawn)
AC50 [1]: 12.6 µM [falling, partial curve]

CCOc1ccc(CNC(=O)C2=Cc3cc(Br)ccc3OC2)cc1OC
AC50 [1]: 25.1 µM [falling, partial curve]

N=C1[C@@H](O)[C@]2(I)c3ccccc3N3C(=N)[C@H](O)[C@@H]4c5ccccc5N1[C@@H]4[C@@H]32
AC50 [1]: 0.1 µM [falling, full curve]

COc1ccc(Cl)cc1NC(=O)CSc1nc(=O)[nH]c2c1CCCC2
AC50 [1]: 10 µM [falling, partial curve]

Cc1noc(C)c1COc1cccc(C(=O)OCCOc2ccc(F)cc2)c1
AC50 [1]: 31.6 µM [falling, single point]

CC(=O)N1c2c(cc(Br)cc2S(=O)(=O)NCc2ccccc2Cl)CC1C (stereo not drawn)
AC50 [1]: 25.1 µM [falling, single point]

COc1ccc(NC(=O)c2cc(C)nc3c2c(C)nn3-c2cccc(Cl)c2C)c(OC)c1
AC50 [1]: 12.6 µM [falling, partial curve]

Cc1ccc2oc(-c3ccc(NC(=O)c4cccc(F)c4)c(C)c3)nc2c1
AC50 [1]: 5.01 µM [falling, partial curve]

COc1cc(Cl)c(NC(=O)CN(C)S(=O)(=O)c2ccc3c(c2)CCCC(=O)N3)c(OC)c1
AC50 [1]: 20 µM [falling, partial curve]

COc1ccccc1CN1CC[C@@]2(CCCN(C(=O)c3cc(C(F)(F)F)cc(C(F)(F)F)c3)C2)C1
AC50 [1]: 2.51 µM [rising, partial curve] [measured here: IkB-luc green channel]

Cc1ccc(-c2nnc(Nc3cccc(O)c3)c3ccccc23)cc1S(=O)(=O)N1CCCCC1
AC50 [1]: 6.31 µM [falling, partial curve]

CCCc1ccc(-c2ccc(C(=O)Oc3ccc(Br)cc3)cc2)nc1
AC50 [1]: 2 µM [falling, partial curve]

CN(C(=O)Cn1ncc2c1-c1ccccc1OC2)c1ccc(Br)cc1
AC50 [1]: 25.1 µM [falling, partial curve]

CCS(=O)(=O)c1cccc(C(=O)N2CCN(c3nc4c(C)ccc(Cl)c4s3)CC2)c1
AC50 [1]: 25.1 µM [falling, single point]

CCCCCn1c(CNC(=O)c2ccc(F)cc2)nc2ccccc21
AC50 [1]: 12.6 µM [falling, partial curve]

O=C(Cn1nnc2c(cnn2-c2ccccc2)c1=O)N1CCN(c2ccccc2F)CC1
AC50 [1]: 31.6 µM [falling, single point]

CN(C)C1(CNC(=O)COc2ccc(C(C)(C)C)cc2)CCCCC1
AC50 [1]: 5.01 µM [falling, partial curve]

COc1ccccc1OCC(=O)Nc1c(C(=O)c2ccc(C)cc2)oc2ccccc12
AC50 [1]: 1.58 µM [rising, full curve]
